Laboratory results taken from patent US20020028208A1 (TEXAS A AND M UNIVERSITY SYSTEM, published 2002).
These are yes or no findings as the source states them, for the method shown. Some entries that bind do so weakly or less than the wild type.

Protein sequences, listed by entry. Tags and fused reporters are not part of them. Residues count along the entry.
UniProt P16410, residues 38-161: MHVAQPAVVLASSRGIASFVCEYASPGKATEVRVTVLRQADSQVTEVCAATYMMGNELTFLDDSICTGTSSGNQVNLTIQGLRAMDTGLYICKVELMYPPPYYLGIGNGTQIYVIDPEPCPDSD

Target: T1, feline CD80 (B7-1)-TAMU, surface expressed on feCD80/pSI transfected COS-7 cells (feline)
T1 sequence: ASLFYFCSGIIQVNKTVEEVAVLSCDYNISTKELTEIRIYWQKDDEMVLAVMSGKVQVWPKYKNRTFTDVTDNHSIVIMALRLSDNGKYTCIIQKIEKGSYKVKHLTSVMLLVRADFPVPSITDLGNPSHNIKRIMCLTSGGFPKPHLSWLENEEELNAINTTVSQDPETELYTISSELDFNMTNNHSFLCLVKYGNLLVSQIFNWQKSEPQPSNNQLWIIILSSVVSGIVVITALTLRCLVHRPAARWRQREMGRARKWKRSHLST
Test: competitive cell-cell adhesion assay: labeled CD80-pSI COS-7 cells pre-incubated with CTLA-4 Ig at 1 ug/ml for 30 min and washed before addition to the CD28-pSI COS-7 monolayer

huCTLA-4Ig fusion protein (from UniProt P16410 38-161) (Fc fusion)
binding: binds
